Measured values published in patent US11135246B2, “Peptides and combination of peptides for use in immunotherapy against leukemias and other cancers” (Immatics Biotechnologies GmbH, priority 2017, dated 2021).

Tested on: HLA molecules of primary tumor samples
Assay: Identification of tumor associated peptides presented on the cell surface (HLA immune precipitation, LC-MS)
Parameters: species or system human
Conditions: for Peptide Presentation on cancer entities: entities on which the peptide was presented, CLL = chronic lymphocytic leukemia, AML = acute myeloid leukemia, CML = Chronic myeloid leukemia; for Peptide Presentation on tumor types: tumor entities on which the peptide was found presented (Table 8b)

Substance	Peptide Presentation on cancer entities	Peptide Presentation on tumor types
28 (VILESIFLK; listed as Homo sapiens) [compound 28]	CLL	GBC, NHL, NSCLCadeno, NSCLCother, NSCLCsquam, OC, OSCAR, PRCA, UEC
29 (RIYDEILQSK; listed as Homo sapiens) [compound 29]	AML	RCC
30 (RTYGFVLTF; listed as Homo sapiens) [compound 30]	CLL	–
31 (ATFNKLVSY; listed as Homo sapiens) [compound 31]	AML	CRC, SCLC, UBC
32 (KTSNIVKIK; listed as Homo sapiens) [compound 32]	CLL	–
33 (SVFEGDSIVLK; listed as Homo sapiens) [compound 33]	CLL	NHL, NSCLCadeno, NSCLCother, OC
34 (SVYSETSNMDK; listed as Homo sapiens) [compound 34]	CLL	BRCA, MEL, NHL, NSCLCsquam, OC, OSCAR, RCC, UEC
35 (ATKSPAKPK; listed as Homo sapiens) [compound 35]	CLL	–
36 (KAKAAAKPK; listed as Homo sapiens) [compound 36]	CLL	–
37 (KAKKPAGAAK; listed as Homo sapiens) [compound 37]	CLL	–
38 (KARKSAGAAK; listed as Homo sapiens) [compound 38]	CLL	–
39 (IVIQLRAQK; listed as Homo sapiens) [compound 39]	CLL	–
40 (RSKEYIRKK; listed as Homo sapiens) [compound 40]	CLL	–
41 (SVAHLLSKY; listed as Homo sapiens) [compound 41]	CLL	UEC
42 (SVSSSTHFTR; listed as Homo sapiens) [compound 42]	CLL	GC, HNSCC, NHL, NSCLCadeno, NSCLCsquam, UEC
43 (KLMETSMGF; listed as Homo sapiens) [compound 43]	CLL	BRCA, CRC, GBC, GBM, GC, HCC, HNSCC, MEL, NHL, NSCLCother, NSCLCsquam, OC, OSCAR, PACA, PRCA, RCC, SCLC, UBC, UEC
44 (KVYDPVSEY; listed as Homo sapiens) [compound 44]	CLL	BRCA, CCC, GBC, GBM, HCC, MEL, NHL, NSCLCadeno, NSCLCother, NSCLCsquam, OC, OSCAR, PACA, RCC, SCLC, UBC, UEC
45 (VVFPFPVNK; listed as Homo sapiens) [compound 45]	AML, CML	GBM, NHL, NSCLCother, OC, SCLC, UEC
46 (RVFPSPMRI; listed as Homo sapiens) [compound 46]	CLL	MEL, NHL, NSCLCsquam, OSCAR, SCLC
47 (SVLDLSVHK; listed as Homo sapiens) [compound 47]	CLL	CCC, HCC, NHL, OSCAR, PRCA, SCLC, UEC
48 (RIKPPGPTAVPK; listed as Homo sapiens) [compound 48]	AML	BRCA, MEL
49 (GLLEEALFY; listed as Homo sapiens) [compound 49]	AML	BRCA, CRC, GBC, GC, HCC, MEL, NSCLCadeno, NSCLCsquam, OSCAR, PACA, PRCA, RCC
50 (GVFNTLISY; listed as Homo sapiens) [compound 50]	AML	MEL, PRCA
51 (ASTTVLALK; listed as Homo sapiens) [compound 51]	CLL	NHL
52 (KAFNQSSTLTK; listed as Homo sapiens) [compound 52]	CLL	–
53 (KYIEYYLVL; listed as Homo sapiens) [compound 53]	CLL	GC, NSCLCadeno, NSCLCsquam, UEC
54 (QQALNFTRF; listed as Homo sapiens) [compound 54]	CLL	GBC, MEL, NHL, NSCLCadeno, NSCLCsquam, OC, RCC, SCLC
55 (IFVARLYYF; listed as Homo sapiens) [compound 55]	CLL	BRCA, CRC, GBC, GC, HCC, MEL, NHL, NSCLCadeno, NSCLCother, NSCLCsquam, OC, OSCAR, PACA, PRCA, RCC, SCLC, UBC, UEC
